# Reference: PubChem BioAssay AID1347075 (National Center for Advancing Translational Sciences (NCATS), 2019)
# The whole screen tested about 400,000 compounds, of which about 5,500 (1.4%) were called active. This list was built around the results that the source calls inconclusive (neither active nor inactive); the mix of calls is not that of the screen. Calls follow the shape of the dose curve; as a rule, active = well fitted cell-killing curve with a large enough effect; inconclusive = small, poorly fitted or top-dose-only effect, or effect the other way; inactive = flat fitted curve, though single readings scatter. A potency beside an inconclusive call is a rough fit, not a confirmed value.
# Assay: qHTS assay for MDR1-selective chemotherapeutics: Primary screen using the parental adenocarcinoma cell KB-3-1; also: nearly all actives have a fitted effect of over 60% in size
# Settings: KB-3-1 viability, CellTiter-Glo ATP luminescence, 72 h; activity change, negative = cytotoxic: at 46.1 µM (top of the series)
# In short: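 Multi-concentration cytotoxicity screen in KB-3-1 cells grown in DMEM lacking phenol red with 10% FBS. After 72 h at 37 °C with compound, ATP-dependent luminescence was recorded.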
# % is scaled to controls: 0 for no effect and ±100 for the full control effect; potency is read from the fitted curve at half-maximal effect.
Compound,Potency,"activity change, negative = cytotoxic"
CCOC(=O)Cc1csc(NC(=O)c2ccncc2)n1,"inconclusive: 29.1 µM [cytotoxic, single point]",–
C=C1C=C(C)n2ncc(C(=O)Nc3cccc4cnccc34)c2N1,"inconclusive: 29.1 µM [rising, single point]",–
Cn1cc(C2CC(c3ccccc3)=NN2C(=O)c2ccccc2)c2ccccc21 (centres undefined),"inconclusive: 29.1 µM [cytotoxic, single point]",–
Cc1ccccc1Cn1c(O)c(N=NC(=S)Nc2ccccc2F)c2ccccc21,"inconclusive: 29.1 µM [cytotoxic, partial curve, poor fit]",–
O=c1c(Cl)cc(Cl)nn1-c1ccccc1,"inconclusive: 23.1 µM [cytotoxic, single point]",–
O=C(O)C1CCCCC1C(=O)Nc1nc(-c2ccc(Cl)s2)cs1 (centres undefined),"inconclusive: 29.1 µM [cytotoxic, single point]",–
CCC(C)(C)NC(=O)C(c1cccnc1)N(C(=O)c1csnn1)c1ccccc1 (centres undefined),–,inactive: 16.4%
O=C(N/N=C/c1ccccc1)c1sccc1OCc1ccc(F)cc1,"inconclusive: 20.6 µM [cytotoxic, single point]",–
CN(C)S(=O)(=O)Oc1ccc(C(=O)Nc2cccc(C(F)(F)F)c2)cc1,"inconclusive: 25.9 µM [cytotoxic, single point]",–
Cc1ccnc(NC(=O)COc2ccc3oc4c(c3c2)CCCC4)c1,"inconclusive: 32.6 µM [cytotoxic, single point]",–
CCCCN(Cc1ccccc1)C(=O)C1CCN(Cc2sccc2C)CC1,"inconclusive: 20.6 µM [cytotoxic, partial curve]",–
COc1ccc(-c2c(C)[nH]n3c(=O)c(Cc4ccccc4)c(C)nc23)cc1,"inconclusive: 20.6 µM [cytotoxic, single point]",–
CCOc1cc(CNCc2ccncc2)cc(Br)c1OCc1ccccc1F,"inconclusive: 29.1 µM [cytotoxic, single point]",–
O=C(NC1CCCC1)c1c[nH]c2ccc(S(=O)(=O)Nc3cccc(C(F)(F)F)c3)cc2c1=O,–,inactive: 1.69%
COc1cccc2c1C(=O)c1c(O)c3c(c(O)c1C2=O)CC(O)(C(=O)CO)CC3OC1CC(N(C)C)C(O)C(C)O1 (centres undefined),"inconclusive: 0.92 µM [cytotoxic, full curve, poor fit]",–
Cc1cccc(NC(=O)c2ccccc2NC(=O)c2ccccc2)n1,"inconclusive: 16.4 µM [cytotoxic, single point]",–
CCOC(=O)c1cnc2c(c(C)nn2C)c1Oc1ccc(Cl)cc1,"inconclusive: 20.6 µM [cytotoxic, partial curve, poor fit]",–
CCN1CCN(S(=O)(=O)c2ccc3c4c(cccc24)C(=O)N3CC)CC1,–,inactive: -16.1%
CC(Oc1ccc(Br)cc1)c1nc2c3ccccc3nc(=S)n2[nH]1 (centres undefined),"inconclusive: 29.1 µM [cytotoxic, partial curve, poor fit]",–
CC(=O)OCC#CCSc1nnc(-c2cccc(Br)c2)o1,–,inactive: 14.1%
C/C=C/c1ccc(OCC(=O)Nc2cc(OC)c(OC)c(OC)c2)c(OC)c1,"inconclusive: 23.1 µM [cytotoxic, single point]",–
O=[N+]([O-])c1ccc2nc(-c3ccc(Cl)cc3)[nH]c2c1,"inconclusive: 20.6 µM [cytotoxic, single point]",–

Compound,Potency,"activity change, negative = cytotoxic"
Cc1cccc(CN2CCN(C3CN(Cc4cn(Cc5ccc(Cl)cc5)nn4)S(=O)(=O)C3)CC2)c1 (centres undefined),"inconclusive: 14.6 µM [cytotoxic, single point]",–
O=C(/C=C/c1ccc(Br)cc1)N1CCN(c2cccc(C(F)(F)F)c2)CC1,"inconclusive: 16.4 µM [cytotoxic, single point]",–
COc1ccc(OC)c(C=C2CCc3ccccc3C2=O)c1,"inconclusive: 25.9 µM [cytotoxic, single point]",–
O=C1CN(C(=O)c2ccc(Cl)c([N+](=O)[O-])c2)c2ccccc2N1,–,inactive: 0.685%
COc1ccc(CC(=O)Nc2nc3c(s2)CC(C(C)(C)C)CC3)cc1 (centres undefined),–,inactive: 1.52%
O=Cc1c(-[n+]2ccccc2)nc([O-])n1-c1ccccc1,"inconclusive: 20.6 µM [rising, partial curve, poor fit]",–
Cc1ccc(Nc2c([N+](=O)[O-])cc(C(=O)N3CC(=O)Nc4ccccc43)cc2[N+](=O)[O-])c(C)c1,"inconclusive: 29.1 µM [cytotoxic, single point]",–
C[C@@H]1C[C@H]2[C@@H]3C[C@H](F)C4=CC(=O)C=C[C@]4(C)[C@@]3(F)[C@@H](O)C[C@]2(C)[C@@]1(O)C(=O)COC(=O)C(C)(C)C,"inconclusive: 13 µM [cytotoxic, partial curve]",–
CC(C)(C)Nc1nc(-c2ccccn2)nc2ccccc12,"inconclusive: 18.4 µM [cytotoxic, single point]",–
COCCN(CC(=O)Nc1cc(Cl)ccc1-n1cncn1)Cc1nc2ccccc2c(=O)[nH]1,"inconclusive: 0.651 µM [rising, full curve]",–
COc1cc(CNc2ccc(N3CCN(C(C)=O)CC3)cc2)ccc1OCc1ccccc1,"inconclusive: 29.1 µM [cytotoxic, single point]",–
CCc1ccc(-c2nc(CSCC(=O)NCc3ccccc3OC)c(C)o2)cc1,"inconclusive: 29.1 µM [cytotoxic, partial curve, poor fit]",–
CC(C)CN1CCN(Cc2cc3ccccc3[nH]2)CC1CCO (centres undefined),–,inactive: -0.403%
CC(C)NC(=O)Nc1ccc2c(c1)N(C)C(=O)c1ccccc1S2,–,inactive: -3.93%
COc1ccc(C(=O)/C=C/c2ccc(N(C)C)cc2)c(OC)c1,"inconclusive: 32.6 µM [cytotoxic, single point]",–
COc1ccc(OC)c(-c2csc(NC(=O)c3ccccc3F)n2)c1,–,inactive: -5.58%
Cc1ccc(-c2nn3c(C)nnc3s2)cc1NC(=O)COc1ccc(Cl)cc1,"inconclusive: 32.6 µM [cytotoxic, single point]",–
CCC(C)(C)NC(=O)CN(Cc1cccs1)C(=O)CNS(=O)(=O)c1ccc(C)cc1,"inconclusive: 29.1 µM [rising, single point]",–
c1ccc(-c2nc(N3CCCCCC3)c3ccccc3n2)nc1,active: 3.66 µM,–
O=C1CC(c2nc3ccccc3n2CCCCOc2ccccc2)CN1c1ccccc1Cl (centres undefined),"inconclusive: 29.1 µM [cytotoxic, single point]",–
O=c1oc2ccc(Br)cc2cc1S(=O)(=O)c1ccc(F)cc1,active: 29.1 µM,–
CCOC(=O)C(CC)Sc1ccc2nnc(-c3ccc(F)cc3)n2n1 (centres undefined),"inconclusive: 0.731 µM [cytotoxic, full curve, poor fit]",–

# Reprinted at random: 4 records from the list
Compound,Potency,"activity change, negative = cytotoxic"
Cc1cccc(CN2CCN(C3CN(Cc4cn(Cc5ccc(Cl)cc5)nn4)S(=O)(=O)C3)CC2)c1 (centres undefined),"inconclusive: 14.6 µM [cytotoxic, single point]",–
Cc1ccc(-c2nn3c(C)nnc3s2)cc1NC(=O)COc1ccc(Cl)cc1,"inconclusive: 32.6 µM [cytotoxic, single point]",–
COc1ccc(C(=O)/C=C/c2ccc(N(C)C)cc2)c(OC)c1,"inconclusive: 32.6 µM [cytotoxic, single point]",–
O=C1CC(c2nc3ccccc3n2CCCCOc2ccccc2)CN1c1ccccc1Cl (centres undefined),"inconclusive: 29.1 µM [cytotoxic, single point]",–

# Following part

Compound,Potency,"activity change, negative = cytotoxic"
Cn1c2ccccc2c2cc(/C=N/NC(=O)c3ccc(N)cc3)ccc21,"inconclusive: 20.6 µM [cytotoxic, single point]",–
Cc1ccc(Cl)cc1N1CCN(C(=O)c2cc(S(=O)(=O)N3CCC(C)CC3)cn2C)CC1,"inconclusive: 16.4 µM [cytotoxic, single point]",–
CCOC(=O)c1sc(N/N=C/c2ccc(N(C)C)cc2)nc1C,"inconclusive: 16.4 µM [rising, single point]",–
O=C(Nc1cccc(S(=O)(=O)c2cccc(NC(=O)C3CC3)c2)c1)C1CC1,"inconclusive: 29.1 µM [cytotoxic, single point]",–
C=C1C=C(C)n2ncc(C(=O)Nc3cccc(C(=O)Nc4cccc(C(F)(F)F)c4)c3)c2N1,"inconclusive: 14.6 µM [rising, partial curve, poor fit]",–
COc1cccc2sc(N(CCCN(C)C)C(=O)CCS(=O)(=O)c3ccccc3)nc12,active: 18.4 µM,–
CC(=O)c1ccc(NC(=O)CSc2nc(=O)cc(N)n2-c2ccccc2)cc1,–,inactive: 2.27%
COc1ccc(CN2CN(C(C)C)CSC2=S)cc1,"inconclusive: 29.1 µM [cytotoxic, single point]",–
Cc1ccc(S(=O)(=O)c2ccc(Cl)cc2)cc1S(=O)(=O)N1CCOCC1,"inconclusive: 18.4 µM [cytotoxic, single point]",–
CCOC(=O)c1sc(NCCNc2nc(C)c(C(=O)OCC)s2)nc1C,–,inactive: 20.3%
CCn1c(SCC(=O)Nc2ccccc2OC)nc2ccccc2c1=O,–,inactive: -5.97%
CCC(=O)N1CCN(c2ccc(NC(=O)COc3ccccc3[N+](=O)[O-])cc2)CC1,"inconclusive: 29.1 µM [cytotoxic, single point]",–
CN(C(=O)OC(C)(C)C)c1ccc(-c2nc3ccccc3s2)cc1,"inconclusive: 16.4 µM [cytotoxic, single point]",–
Cc1cccc(-c2n[nH]c(=S)n2C)c1,"inconclusive: 18.4 µM [cytotoxic, single point]",–
CCOc1c(Cl)cc(C(=O)Nc2ccccc2-c2ccccc2)cc1Cl,"inconclusive: 9.2 µM [cytotoxic, partial curve, poor fit]",–
CCC1CCc2c(sc3nc(SCC(=O)NCc4ccco4)n(-c4ccccc4)c(=O)c23)C1 (centres undefined),"inconclusive: 23.1 µM [cytotoxic, single point]",–
CC(C)(C)NC(=O)C(c1ccc(C#N)cc1)n1c(=O)c(-c2cc3ccccc3[nH]2)nc2ccccc21 (centres undefined),"inconclusive: 29.1 µM [cytotoxic, single point]",–
O=C(Nc1cccc(NC(=O)N2CCN(c3ccccc3)CC2)c1)N1CCN(c2ccccc2)CC1,"inconclusive: 29.1 µM [cytotoxic, single point]",–
CCOc1ccc(-c2cc(C(=O)NCCCn3ccnc3)c3cc(Br)ccc3n2)cc1,"inconclusive: 29.1 µM [cytotoxic, single point]",–
Cc1ccc2oc(C(=O)N3CCN(Cc4nccn4C)CC3)c(C)c2c1,–,inactive: 19.3%
